{
  "source": "patent US20250144170A1",
  "about": "“METHOD FOR SUSTAINED DRUG DELIVERY FOR WOUND HEALING USING SILK HYDROGEL AND PRODUCT THEREOF” (AASYA HEALTH CARE PRIVATE LIMITED, priority 2022, published 2025)",
  "test_system": "alveolar socket tissue (site of wound)",
  "test": "Histopathological analysis of alveolar socket tissue",
  "type": "in vivo",
  "details": "rabbit, 14th day of treatment",
  "note": "For at least one compound, name, drawing or mass did not settle the structure.",
  "data": [
    {"smiles": "C[C@H]1c2cccc(O)c2C(=O)C2=C(O)[C@]3(O)C(=O)C(C(N)=O)=C(O)[C@@H](N(C)C)[C@@H]3[C@@H](O)[C@@H]21", "note": "[doxycycline]", "values": [
      {"measurement": "histopathology: epithelial / epidermal surface", "result": "irregular epithelial stratification with variable thickness"},
      {"measurement": "histopathology: lamina propria", "result": "mild chronic inflammatory cell infiltrate"}
    ]}
  ]
}
